Measurements from US20180318199A1, “Pharmaceutical Composition Having Anti-Aging Properties against High-Glucose” (TAIWAN LEADER BIOTECH CORP., priority 2017, published 2018).
Some entries share one result that the patent states for a list of compounds. For at least one compound, name, drawing or mass did not settle the structure.

What follows are molecules tested on HNDFs (CCD966SK) (assay: MTT cytotoxicity of antcins against HNDFs). Conditions: MTT assay, 72 h, 1, 5, 10 and 20 μM tested; read-out: 50% inhibitory concentration (IC50) against HNDFs.
Format: cell-based, human
Experimental: Please refer to FIG. 2A˜FIG. 2D, which are views showing HG-induced senescence affected by antcins in HNDFs. As shown in the figures, prior to an investigation, cytotoxicity of antcins against HNDFs is determined. In FIG. 2A, type of antcins are subjected to screen for potential anti-aging agents for skin aging. Names and chemical structures of the antcins are shown in the left and center column, respectively. The cytotoxic effects of antcins against HNDFs are investigated. Briefly, HNDFs are incubated with increasing concentrations (1, 5, 10 and 20 μM) of antcins including ANA, ANB, ANC, ANH, ANK and ANM for 72 h and the cell viability is determined by MTT assay. The 50% inhibitory concentrations (IC50) of each compound against HNDFs are shown in right column.
Cell viability is assessed by MTT colorimetric assay. Briefly, HNDFs (2×10^4cells/well) or HUVECs (5×10^4 cells/well) are seeded in a 24-well culture plate. After treatment with HG (15 and 30 mM) in the presence or absence of samples for 24-72 h, culture media is withdrawn and incubated with MTT (1 mg/mL) in fresh medium for 2 h. The MTT formazan crystals are dissolved in 400 μL of DMSO and the samples are measured at 570 nm […] using an ELISA microplate reader (Bio-Tek Instruments, Winooski, Vt.). The percentage of cell viability (%) is calculated as (A570 of treated cells/A570 of untreated cells)×100.

Compound	IC50 [µM]
C=C(CCC(C)C1CCC2C3=C(C(=O)C(O)C21C)C1(C)CCC(O)C(C)C1CC3=O)C(C)C(=O)O (stereo not shown) [ANH, antcin H]	> 50
C=C(CC[C@@H](C)[C@H]1CC[C@H]2C3=C(C(=O)C[C@]12C)[C@@]1(C)CCC(=O)[C@@H](C)[C@@H]1C[C@@H]3O)[C@H](C)C(=O)O [ANC, antcin C]	> 50
C=C(CCC(C)C1CCC2C3=C(C(=O)C(O)C21C)C1(C)CCC(O)C(C)C1CC3)C(C)C(=O)O (stereo not shown) [ANM, antcin M]	> 50
C=C(CC[C@@H](C)[C@H]1CC[C@H]2C3=C(C(=O)C[C@]12C)[C@@]1(C)CCC(=O)[C@@H](C)[C@@H]1CC3)C(C)C(=O)O (stereo partly shown) [ANA, antcin A]	> 50
